From US20200123260A1
Results are given in words; binding and its absence hold for the method and conditions named. Some binding calls cover weakened binding; strength is not graded here.

The chains behind the UniProt entries cited, without tags or fusion partners. Residues count along the entry.
UniProt Q16620, residues 32-822: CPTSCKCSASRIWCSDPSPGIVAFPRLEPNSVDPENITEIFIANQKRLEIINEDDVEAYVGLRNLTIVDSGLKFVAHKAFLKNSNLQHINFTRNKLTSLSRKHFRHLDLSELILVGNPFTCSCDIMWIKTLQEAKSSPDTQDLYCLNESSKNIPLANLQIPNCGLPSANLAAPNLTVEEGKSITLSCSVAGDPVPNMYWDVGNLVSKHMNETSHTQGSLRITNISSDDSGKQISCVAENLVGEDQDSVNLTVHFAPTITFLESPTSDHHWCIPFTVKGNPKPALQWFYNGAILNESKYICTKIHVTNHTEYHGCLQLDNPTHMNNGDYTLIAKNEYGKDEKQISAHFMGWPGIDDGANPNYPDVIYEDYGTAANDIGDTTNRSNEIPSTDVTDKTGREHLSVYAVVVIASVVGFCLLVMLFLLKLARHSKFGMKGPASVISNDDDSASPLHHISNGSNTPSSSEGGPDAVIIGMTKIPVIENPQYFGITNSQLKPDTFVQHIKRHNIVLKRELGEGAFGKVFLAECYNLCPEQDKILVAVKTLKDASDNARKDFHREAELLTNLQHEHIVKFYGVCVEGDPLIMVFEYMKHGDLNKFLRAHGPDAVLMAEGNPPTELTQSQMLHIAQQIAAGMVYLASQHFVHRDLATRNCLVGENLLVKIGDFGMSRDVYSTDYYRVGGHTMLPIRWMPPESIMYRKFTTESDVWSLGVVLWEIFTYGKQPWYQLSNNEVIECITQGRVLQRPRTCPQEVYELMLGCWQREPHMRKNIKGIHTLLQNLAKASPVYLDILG

Columns and labels:
[1] = target: human TrkB (open reading frame from nm_006180) on HEK293 cells (human) (UniProt Q16620); assay: cell-based ELISA on HEK293 cells transiently transfected with hTrkB (293-TrkB)
[2] = target: human TrkB (open reading frame from nm_006180) on HEK293 cells (human) (UniProt Q16620); assay: cell-based ELISA on transfected 293 cells
[3] = target: human TrkB (open reading frame from nm_006180) on HEK293 cells (human) (UniProt Q16620); assay: FACS on transfected HEK293 cells
[4] = target: human TrkB (open reading frame from nm_006180) on HEK293 cells (human) (UniProt Q16620); assay: FACS on HEK293 cells transiently transfected with hTrkB, TAM-163 at […]
[5] = target: human TrkB (open reading frame from nm_006180) on HEK293 cells (human) (UniProt Q16620); assay: FACS on transfected HEK293 cells, 1 µg/ml
[6] = target: human TrkB (open reading frame from nm_006180) on HEK293 cells (human) (UniProt Q16620); assay: cell-based ELISA on transfected 293 cells, anti-IgG-HRP, TMB, OD450
[7] = target: human TrkB (open reading frame from nm_006180) on HEK293 cells (human) (UniProt Q16620); assay: cell-based ELISA on transfected HEK293 cells
[8] = target: human TrkB (open reading frame from nm_006180) on HEK293 cells (human) (UniProt Q16620); assay: FACS on transiently transfected HEK293 cells, FITC-labeled mouse anti-human IgG

Measured: binding

B1: TAM-163 (huTOA-1 v1.0/1.4) (antibody, human IgG1, kappa, V domains shown)
VH: EVQLVESGGGLVQPGGSLRLSCAASGYSFTAYFMNWVRQAPGKGLEWVARINPNNGDTFYTQKFKGRFTISRDNAKNSLYLQMNSLRAEDTAVYYCARRDYFGAMDYWGQGTLVTVSS
VL: DIQMTQSPSSLSASVGDRVTITCRASQTISNNLHWYQQKPGKAPKLLIKSASLAISGVPSRFSGSGSGTDFTLTISSLQPEDFATYYCQQSNSWPNTFGGGTKVEIKR
binds: all assays above
